Laboratory results: the supplement of paper PMC6078165
± gives the standard deviation of the averaged measurements. The reference is the same well before dosing, and untreated signal decays as well.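 Fibroblast labels name human fibroblasts: mostly primary ones from tissues such as uterus (C12385, HUF), lung (H6013), bone (Hs27A), adrenal (HADF) and skin (WS1), plus mammary HMF and breast cancer-associated Hs343T. The cancer cells are basal-like or mesenchymal-like triple-negative breast cancer lines. The paper calls a changed response a hit when it shifts by more than 3x the replicate standard deviation. The tissue of the other fibroblasts is not given here.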

Tested on: BT20
Experiment: relative JC-1 red fluorescence (viability) vs pre-drug, coculture with fibroblast (fraction); higher = more viable cancer cells
Protocol: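 JC-1 labelled TNBC cells cocultured 1:1 (1,500 cells each) with CellTrace Violet stained primary or stromal fibroblasts in 384-well plates in FluoroBrite medium, treated with one of 42 anticancer drugs at 0.1, 1, 10 or 100 uM. JC-1 red fluorescence (mitochondrial integrity in cancer cells only) was read by plate reader every 8 h for 72 h. Values are normalised to each well's pre-drug value. The stock of one drug was tenfold lower, so its dose labels may be too high.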

CO[C@H]1C[C@@H]2CC[C@@H](C)[C@@](O)(O2)C(=O)C(=O)N2CCCC[C@H]2C(=O)O[C@H]([C@H](C)C[C@@H]2CC[C@@H](O)[C@H](OC)C2)CC(=O)[C@H](C)/C=C(\C)[C@@H](O)[C@@H](OC)C(=O)[C@H](C)C[C@H](C)/C=C/C=C/C=C/1C [Rapamycin]
relative JC-1 red fluorescence
Conditions	8 h	16 h	24 h	32 h	40 h	48 h	56 h	64 h	72 h
0.1 µM, coculture fibroblast: C12385	0.9017 ± 0.0037	0.816 ± 0.022	0.734 ± 0.026	0.67 ± 0.02	0.605 ± 0.017	0.572 ± 0.022	0.534 ± 0.017	0.511 ± 0.0094	0.493 ± 0.014
0.1 µM, coculture fibroblast: H6013	0.9149 ± 0.0068	0.866 ± 0.011	0.8273 ± 0.0041	0.797 ± 0.016	0.76 ± 0.033	0.743 ± 0.039	0.748 ± 0.047	0.733 ± 0.054	0.722 ± 0.048
0.1 µM, coculture fibroblast: H6019	0.843 ± 0.017	0.774 ± 0.038	0.746 ± 0.053	0.694 ± 0.061	0.657 ± 0.064	0.645 ± 0.069	0.623 ± 0.077	0.615 ± 0.081	0.605 ± 0.084
0.1 µM, coculture fibroblast: H6076	0.9871 ± 0.0089	0.89795 ± 0.00047	0.8284 ± 0.0045	0.7957 ± 0.00081	0.7697 ± 0.0039	0.7397 ± 0.0034	0.7361 ± 0.0047	0.728 ± 0.014	0.712 ± 0.031
0.1 µM, coculture fibroblast: H6231	0.784 ± 0.096	0.948 ± 0.048	0.84 ± 0.018	0.7749 ± 0.0043	0.7171 ± 0.0054	0.6623 ± 0.0056	0.6331 ± 0.0036	0.601 ± 0.012	0.569 ± 0.021
0.1 µM, coculture fibroblast: HADF	0.894 ± 0.12	0.9001 ± 0.0077	0.86031 ± 0.00068	0.8382 ± 0.0076	0.8157 ± 0.0012	0.77 ± 0.0032	0.7584 ± 0.006	0.7486 ± 0.0037	0.722 ± 0.0092
0.1 µM, coculture fibroblast: HCFa	0.9188 ± 0.0039	0.882 ± 0.026	0.869 ± 0.06	0.823 ± 0.068	0.803 ± 0.084	0.788 ± 0.11	0.78 ± 0.13	0.766 ± 0.14	0.745 ± 0.16
0.1 µM, coculture fibroblast: HCPF	0.855 ± 0.059	0.916 ± 0.04	0.842 ± 0.024	0.7708 ± 0.0054	0.722 ± 0.0055	0.676 ± 0.016	0.639 ± 0.02	0.626 ± 0.03	0.601 ± 0.032
0.1 µM, coculture fibroblast: HHSteC	0.9375 ± 0.0092	0.874 ± 0.011	0.854 ± 0.019	0.787 ± 0.025	0.747 ± 0.025	0.732 ± 0.051	0.727 ± 0.073	0.72 ± 0.098	0.705 ± 0.12
0.1 µM, coculture fibroblast: HMF	0.899 ± 0.14	0.933 ± 0.054	0.843 ± 0.096	0.794 ± 0.1	0.756 ± 0.12	0.718 ± 0.14	0.678 ± 0.14	0.657 ± 0.14	0.632 ± 0.13
0.1 µM, coculture fibroblast: HPFa	0.9385 ± 0.009	0.8307 ± 0.0051	0.8169 ± 0.0031	0.7461 ± 0.0034	0.7171 ± 0.0062	0.677 ± 0.015	0.657 ± 0.012	0.634 ± 0.015	0.598 ± 0.019
0.1 µM, coculture fibroblast: HUF	0.9 ± 0.028	0.812 ± 0.026	0.778 ± 0.037	0.699 ± 0.048	0.656 ± 0.049	0.625 ± 0.06	0.604 ± 0.058	0.587 ± 0.063	0.566 ± 0.06
0.1 µM, coculture fibroblast: Hs5	0.925 ± 0.058	0.93 ± 0.074	0.854 ± 0.061	0.79 ± 0.048	0.744 ± 0.037	0.712 ± 0.035	0.686 ± 0.033	0.65 ± 0.031	0.622 ± 0.018
0.1 µM, coculture fibroblast: Hs27A	0.717 ± 0.0089	0.925 ± 0.073	0.901 ± 0.13	0.792 ± 0.088	0.778 ± 0.044	0.884 ± 0.15	0.878 ± 0.17	0.862 ± 0.18	0.828 ± 0.17
0.1 µM, coculture fibroblast: Hs343T	0.963 ± 0.013	0.881 ± 0.0076	0.802 ± 0.034	0.76 ± 0.038	0.729 ± 0.029	0.686 ± 0.044	0.664 ± 0.036	0.655 ± 0.036	0.642 ± 0.035
0.1 µM, coculture fibroblast: WS1	0.841 ± 0.026	0.767 ± 0.03	0.712 ± 0.042	0.647 ± 0.043	0.589 ± 0.048	0.558 ± 0.051	0.523 ± 0.059	0.5 ± 0.063	0.494 ± 0.066
1 µM, coculture fibroblast: C12385	0.869 ± 0.0011	0.8214 ± 0.0062	0.7765 ± 0.0075	0.723 ± 0.018	0.672 ± 0.014	0.641 ± 0.025	0.62 ± 0.031	0.606 ± 0.026	0.597 ± 0.022
1 µM, coculture fibroblast: H6013	0.856 ± 0.11	0.918 ± 0.013	0.839 ± 0.072	0.811 ± 0.076	0.768 ± 0.098	0.847 ± 0.048	0.755 ± 0.086	0.834 ± 0.019	0.8118 ± 0.0018
1 µM, coculture fibroblast: H6019	0.847 ± 0.03	0.809 ± 0.038	0.785 ± 0.038	0.731 ± 0.034	0.689 ± 0.034	0.679 ± 0.024	0.655 ± 0.026	0.642 ± 0.026	0.639 ± 0.035
1 µM, coculture fibroblast: H6076	0.892 ± 0.13	0.928 ± 0.042	0.849 ± 0.034	0.831 ± 0.043	0.798 ± 0.024	0.77584 ± 0.00019	0.758 ± 0.0085	0.758 ± 0.028	0.746 ± 0.03
1 µM, coculture fibroblast: H6231	0.816 ± 0.14	0.92 ± 0.019	0.872 ± 0.002	0.8205 ± 0.0071	0.774 ± 0.021	0.733 ± 0.043	0.695 ± 0.05	0.673 ± 0.049	0.662 ± 0.052
1 µM, coculture fibroblast: HADF	0.8164 ± 0.0056	0.961 ± 0.045	0.913 ± 0.081	0.896 ± 0.079	0.895 ± 0.1	0.862 ± 0.13	0.858 ± 0.17	0.855 ± 0.19	0.844 ± 0.21
1 µM, coculture fibroblast: HCFa	0.9354 ± 0.009	0.909 ± 0.038	0.9 ± 0.059	0.863 ± 0.066	0.834 ± 0.061	0.81 ± 0.071	0.792 ± 0.073	0.782 ± 0.076	0.758 ± 0.071
1 µM, coculture fibroblast: HCPF	0.797 ± 0.14	0.954 ± 0.032	0.872 ± 0.026	0.81 ± 0.041	0.771 ± 0.049	0.719 ± 0.056	0.681 ± 0.072	0.664 ± 0.064	0.641 ± 0.076
1 µM, coculture fibroblast: HHSteC	0.941 ± 0.04	0.925 ± 0.059	0.91 ± 0.071	0.861 ± 0.072	0.825 ± 0.094	0.799 ± 0.11	0.78 ± 0.13	0.763 ± 0.13	0.743 ± 0.14
1 µM, coculture fibroblast: HMF	0.909 ± 0.032	0.916 ± 0.069	0.827 ± 0.079	0.774 ± 0.065	0.749 ± 0.055	0.703 ± 0.042	0.69 ± 0.031	0.663 ± 0.022	0.644 ± 0.022
1 µM, coculture fibroblast: HPFa	0.932 ± 0.029	0.92 ± 0.064	0.926 ± 0.084	0.874 ± 0.1	0.85 ± 0.11	0.815 ± 0.13	0.798 ± 0.13	0.783 ± 0.14	0.756 ± 0.13
1 µM, coculture fibroblast: HUF	0.859 ± 0.027	0.818 ± 0.048	0.812 ± 0.067	0.743 ± 0.071	0.701 ± 0.069	0.673 ± 0.06	0.658 ± 0.063	0.649 ± 0.059	0.634 ± 0.063
1 µM, coculture fibroblast: Hs5	0.783 ± 0.084	0.98 ± 0.013	0.8902 ± 0.0026	0.8273 ± 0.0015	0.7763 ± 0.0043	0.725 ± 0.011	0.687 ± 0.014	0.659 ± 0.018	0.635 ± 0.026
1 µM, coculture fibroblast: Hs27A	0.9226 ± 0.0012	0.839 ± 0.17	0.928 ± 0.057	0.942 ± 0.078	0.909 ± 0.072	0.896 ± 0.085	0.882 ± 0.073	0.865 ± 0.076	0.832 ± 0.067
1 µM, coculture fibroblast: Hs343T	0.95 ± 0.067	0.908 ± 0.019	0.829 ± 0.043	0.777 ± 0.062	0.738 ± 0.088	0.707 ± 0.1	0.678 ± 0.11	0.668 ± 0.12	0.645 ± 0.12
1 µM, coculture fibroblast: WS1	0.877 ± 0.042	0.836 ± 0.06	0.791 ± 0.063	0.73 ± 0.062	0.688 ± 0.089	0.656 ± 0.093	0.63 ± 0.092	0.605 ± 0.095	0.6 ± 0.097
